Drawing on ChEMBL document CHEMBL4339225, “Self-assembling Releasable Thiocolchicine-Diphenylbutenylaniline Conjugates” (ACS Med Chem Lett, 2019), this text covers GI50 for 1 molecule.

What all share (assay type): functional
The test system of one experiment is HeLa. The experiment can be described thus: Antiproliferative activity against human HeLa cells assessed as reduction in cell number incubated for 72 hrs.
The next experiment concerns HepG2. Description: Antiproliferative activity against human HepG2 cells assessed as reduction in cell number incubated for 72 hrs. The following applies: HepG2, 72 h.
The subject of the next experiment is MCF7. The experiment can be described thus: Antiproliferative activity against human MCF7 cells assessed as reduction in cell number incubated for 72 hrs. The following applies: MCF7, 72 h.

Turning to `COc1cc2c(c(OC)c1OC)-c1ccc(SC)c(=O)cc1[C@@H](N)CC2`, the GI50 (as a rule, the concentration at which growth is held to half of that of the control) was determined as 14 nM in the experiment with HeLa, 18 nM with HepG2 and 18 nM with MCF7.
